# Laboratory results from publication PMC7431030 (Nature, 2020).
# System: SARS-CoV-2
# Type: cell-based
smiles,measurement,value
CN1CCC[C@@H]1CCO[C@](C)(c1ccccc1)c1ccc(Cl)cc1 [clemastine],antiviral activity / viral infectivity (in words),antiviral activity
